PubChem BioAssay AID1508600 (Functional Genomics Laboratory (NCATS/FGL), 2020)
Screen size: about 53,000 sequences; about 3,700 (7%) were called active.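 How the source made its calls: active means gene knockdowns whose robust z-score for IL-1 alpha signal is at least 2 or at most -2, so actives lie on both sides; inactive means the rest.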 The list shows a part of the results.

assay: Components of the Cytosolic LPS Sensing Pathway: Gene Identification via Genome-wide siRNA Screen; conditions: RAW264.7 macrophages, IL-1a HTRF, actives lie on both sides, screened at 100 nM (by protocol), cells primed 5 h with Pam3CSK4 first;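 further: robust z of the log signal after scaling to non-targeting control siRNA wells of the plate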
How it was run: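 Cells (RAW264.7, 1×10^4 per well) were transfected with siRNA at 100 nM and cultured 48h at 37 degrees C. Pam3CSK4 was added for 5 hours; LipidA transfection followed for 24 hour. IL-1a was then measured by HTRF.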

Sequence	z-score
CCAAUAUUCAGUCCUAUAUTT against Kcnip3	inactive: -0.918
GGAAAAAAAAAACUGUCUGTT against Pitpnm2	inactive: 0.193
GGCUGAAGCAGUUUCAUUUTT against Car5a	inactive: 0.336
GGGACGUAAAUCAAAUGAATT against P2ry12	inactive: 0.096
GGAUCUAUAAGGACUACAUTT against Bmp7	active: 4.01
CCUGUUAAGAUCAAUCUCATT against Ldhc	inactive: 0.48
GGUGCUAAGGAGAAGAAGCTT against Plagl2	inactive: 0.275
GGAGAAUGAAGAUGAAUGUTT against Patl2	inactive: -0.872
GGCUUGACAACCUCAUGUCTT against Rnf41	inactive: 0.716
CGUGUGCCACUAAUUGGCUTT against Urod	inactive: 0.852
GGACACAUGGAAGAGGAUUTT against Rnf139	inactive: 0.513
GCCGACAUCUUUGCUCAGATT against Tmco4	inactive: 1.51
GGCAAAAUAAAGGAUAGGATT against Prpf4b	inactive: -0.626
GGAAUUCGAGAAGUAACUATT against Dbt	inactive: 0.0571
CCAUCCACAGCAGUCCCAATT against Olfr530	inactive: -0.104
GGGAUUCCCAUCAUUGUGGTT against Gmpr	inactive: -0.785
CCUGACACUUUCCUUACUUTT against Dbndd2	inactive: -0.586
GGAUGAAAUCGCCAUAUGUTT against Snrnp48	inactive: -1.89
GCUAGCAGACCUAAACAAGTT against Scap	inactive: -0.475
GCCGGUUCAACAUCUAAUATT against Fgl2	inactive: -0.583
GGACAACACCCUGAUGAUATT against Vmn1r208	inactive: -1.07
CCUAUUUUUCUACUAACUGTT against Pkp2	inactive: 1.12
GGAGACCAUGAAUUUAAUGTT against Cmtr1	inactive: 0.476

Sequence	z-score
GCAGGUGGUUGUUUCUUAGTT against Slco2a1	inactive: -0.202
GCAAUGCUCUAAUCCACUCTT against Npas4	inactive: 0.654
GGCCAUCAGAGAAAAGAUATT against Akr1d1	inactive: -0.597
GGAAAGACUUUGAAACUUUTT against Dach2	inactive: 0.121
GCCAAAUUGUCCCGGGCAUTT against Usp39	inactive: 0.457
GGAUUCUCGGUGAAAAAGATT against Fastkd3	inactive: 1.78
GGCUUUAACAUCAAAGCAATT against Mgarp	inactive: 0.0459
GGAUCAAGCAAACUUUGAUTT against Gm9801	inactive: -0.77
GGUCCUCUAAAGAAUAAAGTT against Cela3b	inactive: 0.541
GGAUUAUUUCCUUUCUUUGTT against Lmntd1	inactive: 1.27
GGCACAAAGCGUAUACUGATT against Ugt2a2	inactive: -1.65
CCCUAUACUGCCCGAAUCUTT against Peli3	inactive: -1.3
CGUGAUCGGGUACUGAUGUTT against Bscl2	inactive: 1.2
GGACAUUAGGGAAGUGCCUTT against Olfr281	inactive: -0.0117
GCCUUUGCAUGGCAGUCUATT against Zfp825	inactive: -0.716
GCAUUUCGAAGUGCCCUUGTT against Gpr146	inactive: 1.22
GCCCAACUGCUACCUGUUUTT against Mansc1	inactive: -1.61
GCAUGCAGUCAAGUCAACGTT against Pnoc	inactive: -0.609
GCCCAUGACCAGUUCAAGUTT against Actn4	inactive: 0.63
GCCUCAACAUGGAAUGUCGTT against Ppard	inactive: -0.753
GGUUUUGCACAGCAUUGGUTT against Efna1	inactive: -1.02
CGAUGUGACUAUUUGUUGATT against Snx11	inactive: 0.425
CCAGAAGUUAGAACAGUUCTT against Rp9	inactive: 1.49

Shown as labelled records: entries from further up.
GCCCAUGACCAGUUCAAGUTT against Actn4
  z-score: inactive: 0.63
GCCUCAACAUGGAAUGUCGTT against Ppard
  z-score: inactive: -0.753

Going on with the list:

Sequence	z-score
CGACCUGAAAUCUCAAGUUTT against Clec3a	inactive: 0.438
GGAGUUCGACAUUAGCGGATT against Ehf	inactive: 0.0965
CGACAUAGCUUCUGUACUGTT against Spaca9	inactive: -1.42
GGGCUGAGGAGAAAAUGCATT against Meg3	active: -2.37
GCCAAUAUGCUUAAUUAGATT against Il7	inactive: -0.0442
GGAUUUUGUCGGCAAGGCCTT against Ap5s1	active: -3.12
GGGAUGGCCAUAGAACAGATT against Echdc2	inactive: -0.211
GGAAGAUUUAUUUCACGGATT against Apmap	inactive: -0.0913
GGGUGAUGACGCAAUAUGCTT against Kcnma1	inactive: -0.121
GGUACUCAACAUGAUGCCCTT against Nudt16l1	inactive: -0.36
CCUCGUGUGGAAUUUGAUCTT against Mug1	inactive: -0.886
GGCUGAGGCAGCACUUACUTT against Jph3	inactive: -1.25
GCCACUUAAUGUCACUUUATT against Bag2	inactive: 0.652
GGGAAUCACCCUGAGAAAGTT against Ccndbp1	inactive: -0.269
GCCAUAGGAAAUUGCUAUUTT against Triqk	inactive: 0.38
AAAGCUUAUAACCAUCAACTT against AA467197	inactive: -0.704
UCUACAAGUGGAUCACGGATT against Foxj1	inactive: 1.89
CCCAGAGACCUUUAUCAAUTT against Fbxl14	inactive: -0.524
GGCAGUGUGAAGACAUUGATT against Scube1	inactive: -0.318
GGCUGUUACAACAAAGGAATT against Lin9	inactive: 0.0959
GGACUUCACUGAAGAUUCATT against Acbd4	inactive: -0.0667
CCUUGUUUCUAUCAAGACUTT against Scamp1	inactive: -0.00777
